One molecule from article PMC4996973, “Topology and structure of an engineered human cohesin complex bound to Pds5B” (Nature Communications, 2016) can be followed below.

One assay addresses T1, Smc3^B-FLAG (human) (UniProt Q9UQE7).
T1 sequence: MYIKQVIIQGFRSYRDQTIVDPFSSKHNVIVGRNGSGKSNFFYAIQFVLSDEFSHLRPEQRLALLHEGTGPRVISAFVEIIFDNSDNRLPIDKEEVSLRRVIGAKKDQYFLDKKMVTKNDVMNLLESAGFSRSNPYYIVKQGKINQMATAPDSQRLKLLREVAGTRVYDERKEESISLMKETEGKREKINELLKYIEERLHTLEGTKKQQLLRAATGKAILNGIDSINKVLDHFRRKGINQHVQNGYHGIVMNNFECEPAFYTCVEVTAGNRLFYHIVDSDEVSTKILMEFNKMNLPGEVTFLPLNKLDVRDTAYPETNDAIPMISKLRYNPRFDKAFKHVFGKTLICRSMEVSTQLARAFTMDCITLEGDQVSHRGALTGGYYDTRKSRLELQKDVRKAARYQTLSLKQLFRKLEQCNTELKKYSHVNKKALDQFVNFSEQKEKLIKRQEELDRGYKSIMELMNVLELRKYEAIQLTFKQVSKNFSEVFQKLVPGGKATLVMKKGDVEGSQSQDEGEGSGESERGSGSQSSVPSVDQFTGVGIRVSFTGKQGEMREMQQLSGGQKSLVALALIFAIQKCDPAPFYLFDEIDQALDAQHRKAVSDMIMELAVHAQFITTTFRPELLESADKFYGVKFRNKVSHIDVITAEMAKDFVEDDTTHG
The assay is described as follows: tandem affinity co-purification (Ni-NTA, then anti-FLAG M2 agarose); subunits co-expressed in sf9 cells; lysate in buffer A (500 mM KCl) on Ni-NTA by Scc1^10HIS, then anti-FLAG agarose by Smc3-FLAG; SDS-PAGE and silver staining; full-length tetramers further purified by glycerol density gradient centrifugation.

The target of assay [1] is Smc3^FLAG (full-length) (human) (UniProt Q9UQE7). The assay is described as above.

No constants are given. Whether binding was seen depends on the method and setting. Some binding calls cover weakened binding; strength is not graded here. For some assays here: Where a sequence is shown, tags or fusion partners need not be part of it.

B1: SA1 (protein, UniProt Q8WVM7 1-1258)
chain: MITSELPVLQDSTNETTAHSDAGSELEETEVKGKRKRGRPGRPPSTNKKPRKSPGEKSRIEAGIRGAGRGRANGHPQQNGEGEPVTLFEVVKLGKSAMQSVVDDWIESYKQDRDIALLDLINFFIQCSGCRGTVRIEMFRNMQNAEIIRKMTEEFDEDSGDYPLTMPGPQWKKFRSNFCEFIGVLIRQCQYSIIYDEYMMDTVISLLTGLSDSQVRAFRHTSTLAAMKLMTALVNVALNLSIHQDNTQRQYEAERNKMIGKRANERLELLLQKRKELQENQDEIENMMNSIFKGIFVHRYRDAIAEIRAICIEEIGVWMKMYSDAFLNDSYLKYVGWTLHDRQGEVRLKCLKALQSLYTNRELFPKLELFTNRFKDRIVSMTLDKEYDVAVEAIRLVTLILHGSEEALSNEDCENVYHLVYSAHRPVAVAAGEFLHKKLFSRHDPQAEEALAKRRGRNSPNGNLIRMLVLFFLESELHEHAAYLVDSLWESSQELLKDWECMTELLLEEPVQGEEAMSDRQESALIELMVCTIRQAAEAHPPVGRGTGKRVLTAKERKTQIDDRNKLTEHFIITLPMLLSKYSADAEKVANLLQIPQYFDLEIYSTGRMEKHLDALLKQIKFVVEKHVESDVLEACSKTYSILCSEEYTIQNRVDIARSQLIDEFVDRFNHSVEDLLQEGEEADDDDIYNVLSTLKRLTSFHNAHDLTKWDLFGNCYRLLKTGIEHGAMPEQIVVQALQCSHYSILWQLVKITDGSPSKEDLLVLRKTVKSFLAVCQQCLSNVNTPVKEQAFMLLCDLLMIFSHQLMTGGREGLQPLVFNPDTGLQSELLSFVMDHVFIDQDEENQSMEGDEEDEANKIEALHKRRNLLAAFSKLIIYDIVDMHAAADIFKHYMKYYNDYGDIIKETLSKTRQIDKIQCAKTLILSLQQLFNELVQEQGPNLDRTSAHVSGIKELARRFALTFGLDQIKTREAVATLHKDGIEFAFKYQNQKGQEYPPPNLAFLEVLSEFSSKLLRQDKKTVHSYLEKFLTEQMMERREDVWLPLISYRNSLVTGGEDDRMSVNSGSSSSKTSSVRNKKGRPPLHKKRVEDESLDNTWLNRTDTMIQTPGPLPAPQLTSTVLRENSRPMGDQIQEPESEHGSEPDFLHNPQMQISWLGQPKLEDLNRKDRTGMNYMKVRTGVRHAVRGLMEEDAEPIFEDVMMSSRSQLEDMNEEFEDTMVIDLPPSRNRRERAELRPDFFDSAAIIEDDSGFGMPMF
For the molecule B1, the binding result (with Smc3^B-FLAG (human); in assay [1]) was “binds” throughout.
